Measured values as given in PubChem BioAssay AID485314 (National Center for Advancing Translational Sciences (NCATS), 2010).
Screen size: about 340,000 compounds; about 4,500 (1.3%) were called active. The inconclusive results got no clear call from the source; some entries with a clear call stand among them for comparison. The call rests on the fitted dose curve; in most records, active means well fitted inhibition curve with a large enough effect; inconclusive means small, poorly fitted or top-dose-only effect, or another doubt; inactive means no such curve, though single readings can be large or run the other way. Potencies of inconclusive entries are doubtful fits and often do not repeat.

Biological target: DNA polymerase beta (Homo sapiens) (UniProt P06746)
Experiment: qHTS Assay for Inhibitors of DNA Polymerase Beta
Conditions: Pol beta primer extension/strand displacement, fluorescence kinetic; activity change, negative = inhibition: at 114 µM (top of the series)
Outline: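 10 nM enzyme + cpd, 15 min RT; start with substrate 50 nM final; read 0 min and after 10 min RT. Corrected, normalized data; 4-parameter Hill curve fit.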
On the % scale 0 is the no-effect control and ±100 the full control effect; potency means the concentration at half of the fitted maximal effect.

Row | SMILES | activity change, negative = inhibition | Potency
1 | COc1ccc(CC(=O)NC2CCN(CC(=O)N3CCCc4ccccc43)CC2)cc1OC | inactive: -2.83% | 
2 | O=C(O)CC(C(=O)O)n1nc(-c2ccccc2)cc1-c1ccccc1 (stereo not given) |  | inconclusive: 28.2 µM [inhibitor, full curve, poor fit]
3 | Cc1ccc(O)c(C(=O)c2cnn(C(=O)COc3ccc(Cl)cc3)c2)c1 |  | active: 5.62 µM
4 | COc1ccccc1NC(=O)Cn1nnc(-c2ccccc2NC(=O)c2ccco2)n1 |  | inconclusive: 5.01 µM [inhibitor, single point]
5 | Cc1ccc(C2C(C#N)=C(N)Oc3n[nH]c(-c4cccs4)c32)s1 (stereo not given) |  | inconclusive: 44.7 µM [inhibitor, partial curve]
6 | O=C(Nc1nnc(C2CC2)s1)C1Cc2ccccc2CN1C(=O)c1ccco1 (stereo not given) |  | active: 7.94 µM
7 | COc1ccc(/C=C/C(=O)NC(=S)Nc2cc([N+](=O)[O-])ccc2O)cc1OC |  | active: 17.8 µM
8 | Cc1ccccc1Cn1c2ccccc2c2cnn(CC(=O)NCc3ccco3)c(=O)c21 | inconclusive: -95.2% [inhibitor] | 
9 | CN(C)C(=O)COc1ncnc2sc(-c3ccccc3)cc12 |  | inconclusive: 39.8 µM [inhibitor, single point]
10 | O=S(=O)(c1ccc(-c2ccon2)s1)N1CCCC1 | inactive: 4.71% | 
11 | Cc1ccc(C)c(N2CCN(Cc3csc(C)c3)CC2)c1 | inactive: 9.77% | 
12 | CC(=O)Nc1ccc(NC(=O)C2CCCN(C(=O)c3ccc(Cl)cc3)C2)cc1 (stereo not given) |  | inconclusive: 63.1 µM [inhibitor, partial curve, poor fit]
13 | COCC1CCN(C(=O)C2CCC(=O)N(CCc3ccc(Cl)cc3)C2)CC1 (stereo not given) | inactive: -13.7% | 
14 | Nc1ccc(S(=O)(=O)Nc2ccnn2-c2ccccc2)cc1 |  | inconclusive: 0.891 µM [inhibitor, full curve, poor fit]
15 | COc1cccc2cc(C(=O)NNC(=O)c3ccc(Br)cc3)c(=O)oc12 |  | inconclusive: 3.98 µM [inhibitor, single point]
16 | O=C(O)c1cccc(NC(=O)c2ccc3c(c2)C(=O)N(Cc2ccco2)C3=O)c1 |  | inconclusive: 22.4 µM [inhibitor, partial curve]
17 | CN(C)S(=O)(=O)c1cccc(NC(=O)C2Cc3ccccc3CN2C(=O)c2ccco2)c1 (stereo not given) |  | inconclusive: 35.5 µM [inhibitor, partial curve]
18 | COC(=O)CNC(=O)CSc1nc2sccc2c(=O)n1-c1ccccc1 |  | inconclusive: 15.8 µM [inhibitor, full curve, poor fit]
19 | Cc1ccc(N=Nc2c(=O)[nH]n3c(C)cc(C)nc23)cc1 |  | inconclusive: 2.82 µM [inhibitor, full curve, poor fit]
20 | CN(Cc1ccco1)S(=O)(=O)c1nnc(NC(=O)c2cccc(Cl)c2)s1 |  | inconclusive: 63.1 µM [inhibitor, partial curve]
21 | CC(C)C[C@@H]1NC(=O)[C@H](Cc2ccc(O)cc2)NC(=O)c2cc([N+](=O)[O-])cc(I)c2NCCC[C@@H](C(N)=O)NC1=O |  | inconclusive: 89.1 µM [inhibitor, single point]
22 | CC(=O)/C(N=Nc1ccc(C(=O)O)cc1[N+](=O)[O-])=C(\C)O | inconclusive: -107% [inhibitor] | 
23 | CCCCOc1ccc(-c2c(C(=O)Nc3ccccc3)c(C)[nH]c(=S)c2C#N)cc1 | inactive: -0.133% | 
24 | CC(=O)N1CCc2cc(CNS(=O)(=O)c3ccc(Cl)s3)ccc21 | inactive: 0.198% | 

Row | SMILES | activity change, negative = inhibition | Potency
25 | Cc1nc(C)n(CC(C)C(=O)N2CCN(S(=O)(=O)c3ccc(Cl)cc3)CC2)n1 (stereo not given) |  | inconclusive: 31.6 µM [inhibitor, full curve]
26 | O=C(N/N=C/c1ccc(Cl)c([N+](=O)[O-])c1)c1ccc2nc[nH]c2c1 |  | active: 39.8 µM
27 | CCOC(=O)C1CCN(C(=O)COc2ccc(N(C)S(=O)(=O)c3ccc(OCC)cc3)cc2)CC1 |  | inconclusive: 89.1 µM [inhibitor, single point]
28 | CC(C)(Oc1ccc(Cl)cc1)C(=O)Nc1nc2ccc(S(C)(=O)=O)cc2s1 |  | inconclusive: 50.1 µM [inhibitor, single point]
29 | CCN(C(=O)C1CCN(c2ncnc3c2nc2n3CCCCC2)CC1)c1cccc(Cl)c1 | inactive: 12.5% | 
30 | COc1ccc(-n2ccnc(NCc3ccc(C)cc3)c2=O)cc1OC | inactive: -1.42% | 
31 | O=C(NCC(c1ccc2c(c1)OCO2)N1CCOCC1)c1c(F)cccc1F (stereo not given) | inactive: 9.03% | 
32 | Cc1ccc(-c2c(C#N)c(N)nc3c2CCCCC3)o1 | inactive: -0.555% | 
33 | Cc1cc(C)c(S(=O)(=O)/N=C2\C=CC(=O)C(Cl)=C2)c(C)c1 |  | active: 35.5 µM
34 | Cc1occc1-c1nnc(SCC(=O)N2CCN(c3ccccc3)CC2)n1C |  | inconclusive: 100 µM [inhibitor, single point]
35 | COc1cccc(CNC(=O)CCc2c(C)c3cc4c(C)coc4c(C)c3oc2=O)c1 |  | active: 25.1 µM
36 | CS(=O)(=O)N(Cc1ccc(Cl)cc1)c1ccc(C(=O)NCC2CCCO2)cc1 (stereo not given) |  | inconclusive: 0.794 µM [inhibitor, full curve, poor fit]
37 | CC(=O)c1cccc(NC(=O)COc2ccc(S(=O)(=O)N3CCOCC3)cc2)c1 |  | inconclusive: 39.8 µM [inhibitor, single point]
38 | Cc1cc(-c2nnc(SCC(=O)Nc3ccc(C)c(C)c3)n2N)n[nH]1 |  | active: 2 µM
39 | CC[n+]1c(/C=C/Nc2ccccc2)sc2ccccc21 | inactive: -0.427% | 
40 | CC1=C(C(=O)Nc2ccccc2)C(c2ccc(C)o2)n2c(s/c(=C\c3ccco3)c2=O)=N1 (stereo not given) |  | inconclusive: 17.8 µM [inhibitor, full curve]
41 | COc1ccc(/C=C2/SC(=S)N(CC(=O)O)C2=O)cc1OCc1ccc(Cl)cc1 |  | inconclusive: 89.1 µM [inhibitor, single point]
42 | CCN(CC)CCCNC(=S)N(CCCO)Cc1cc2cc3c(cc2[nH]c1=O)OCO3 |  | inconclusive: 0.501 µM [inhibitor, full curve, poor fit]
43 | Cc1ccc(-n2[nH]c(C)c(/C=N/N3C(=O)c4cccc5cccc(c45)C3=O)c2=O)cc1 |  | inconclusive: 2.82 µM [inhibitor, full curve, poor fit]
44 | COc1cc(NC(=O)c2ccc(NC(=O)N3CCSc4ncccc43)cc2)cc(OC)c1 | inactive: 2.23% | 
45 | Cc1cccc(CCNC(=O)C2CCCN(S(=O)(=O)c3ccc4c(c3)oc(=O)n4C)C2)c1 (stereo not given) | inactive: 0.411% | 
46 | CCOc1cccc2sc(N(CCN(CC)CC)C(=O)c3ccco3)nc12 | inactive: 7.6% | 
47 | C/C=C\C=C/C(=O)Nc1cccc(C2=NOC3(C2)C[C@@H](C(N)=O)N(C(=O)C2(C)CC2)C3)c1 (stereo not given in full) | inactive: 29.1% | 
48 | O=C(CSc1cn(CC(=O)N2CCCC2)c2ccccc12)Nc1cc(C(F)(F)F)ccc1Cl |  | inconclusive: 6.31 µM [inhibitor, full curve]

Row | SMILES | activity change, negative = inhibition | Potency
49 | COc1ccccc1N1CCN(C(=O)COc2ccc(Cl)cc2Br)CC1 |  | inconclusive: 39.8 µM [inhibitor, single point]
50 | COc1c(-c2ccc(O)c(O)c2)oc2cc(O)cc(O)c2c1=O |  | active: 4.47 µM
51 | C/C(=N/NC(=O)c1ccco1)c1cccc(NC(=O)c2ccc(C)s2)c1 | inactive: 2.9% | 
52 | COc1cccc(CNC(=O)c2ccc(NC(=O)N3CC(C)Sc4ccccc43)cc2)c1 (stereo not given) | inactive: -11.3% | 
53 | Cc1ccc(Cl)cc1N1CCN(C(=O)CN(c2ccccc2)S(=O)(=O)N(C)C)CC1 |  | active: 10 µM
54 | CCOC(=O)CC(=O)CSc1nc(-c2cccnc2)ccc1C#N |  | inconclusive: 79.4 µM [inhibitor, single point]
55 | N=C1C(c2nc3ccccc3s2)=C(O)CN1NC(=O)c1ccco1 |  | active: 25.1 µM
56 | COc1ccc([C@]23Cc4cc(OC)c(OC)cc4C(O2)C2=C(CCCC2=O)O3)cc1 | inactive: -23.9% [at 22.9 µM] | 
57 | CCOC(=O)c1c(N)sc(=S)c2c1CCC2 |  | active: 8.91 µM
58 | COc1ccc(Cl)cc1N(CC(=O)NC1CC2CCC1C2)S(=O)(=O)c1ccccc1 (stereo not given) |  | inconclusive: 89.1 µM [inhibitor, single point]
59 | CCCS(=O)(=O)c1nc(S(=O)(=O)c2ccc(C)cc2)c(NCc2ccccc2)s1 |  | inconclusive: 39.8 µM [inhibitor, partial curve]
60 | Cn1cc(C(=O)N2CCN(C(=O)c3ccco3)CC2)c2c3ccccc3n(C)c2c1=O | inactive: 5.7% | 
61 | Cc1ccccc1NC(=O)CCS(=O)(=O)c1ccc(Br)s1 |  | active: 35.5 µM
62 | Cc1cccc(CCNC(=O)C2CCC(CNS(=O)(=O)c3cccs3)CC2)c1 (stereo not given) |  | inconclusive: 39.8 µM [inhibitor, single point]
63 | O=C(NCCc1c[nH]c2ccccc12)C1CCC(=O)N(CCc2cccc(F)c2)C1 (stereo not given) |  | inconclusive: 39.8 µM [inhibitor, single point]
64 | COc1ccc(CN2CCNC(=O)C2CC(=O)NCCSc2nccn2C)cc1OC (stereo not given) |  | inconclusive: 0.631 µM [inhibitor, full curve]
65 | CCOc1cccc(C(=O)Nc2ccc3oc(Cc4ccc(Cl)cc4)nc3c2)c1 |  | inconclusive: 14.1 µM [inhibitor, partial curve, poor fit]
66 | Cc1ccn2cc(CCNC(=O)C3CCCCC3)nc2c1 |  | inconclusive: 100 µM [inhibitor, single point]
67 | COc1ccc(S(=O)(=O)NCC2CCCN(C(=O)CCSC)C2)cc1 (stereo not given) |  | inconclusive: 63.1 µM [inhibitor, single point]
68 | Cc1cc(C)n(Cc2ccc(C(=O)Nc3ccc(Br)cc3C)o2)n1 |  | inconclusive: 79.4 µM [inhibitor, single point]
69 | O=C(Cn1c(=O)c2cccn2c2ccc(F)cc21)N1CCN(c2ccccc2)CC1 | inactive: 3.83% | 
70 | Cc1ccc(-c2cc(C(F)(F)F)c(C#N)c(SCC(=O)O)n2)cc1 |  | inconclusive: 39.8 µM [inhibitor, single point]

Five entries from above, tab-delimited.
Row	SMILES	activity change, negative = inhibition	Potency
64	COc1ccc(CN2CCNC(=O)C2CC(=O)NCCSc2nccn2C)cc1OC (stereo not given)		inconclusive: 0.631 µM [inhibitor, full curve]
65	CCOc1cccc(C(=O)Nc2ccc3oc(Cc4ccc(Cl)cc4)nc3c2)c1		inconclusive: 14.1 µM [inhibitor, partial curve, poor fit]
66	Cc1ccn2cc(CCNC(=O)C3CCCCC3)nc2c1		inconclusive: 100 µM [inhibitor, single point]
67	COc1ccc(S(=O)(=O)NCC2CCCN(C(=O)CCSC)C2)cc1 (stereo not given)		inconclusive: 63.1 µM [inhibitor, single point]
68	Cc1cc(C)n(Cc2ccc(C(=O)Nc3ccc(Br)cc3C)o2)n1		inconclusive: 79.4 µM [inhibitor, single point]
